Source: PubChem BioAssay AID1671195 (Yale University, 2021)
Shown is a random part of about 22,000 deposited reagents. About 1,510 of all reagents (6.9%) count as active. 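Active includes knockdowns raising or lowering LDL uptake; positive z-scores mean more uptake, negative mean less.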 Entries without a mark were called inactive.

- Assay: 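Genes whose knockdown alters LDL uptake in liver cancer cells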 (primary screen)
- Cell system: human Huh7 hepatoma cells
- Knock-down reagent: siRNA pool against human genes, 18 nM
- Time to read-out: about 2 to 2.5 days of knockdown, then 8 h LDL uptake
- Conditions: DiI-labelled LDL at 30 µg/ml for 8 h, in lipoprotein-deficient serum medium
- Detection: 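Per-cell DiI-LDL intensity by automated imaging; well means scaled to the plate median and given as a robust z-score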
- Reading the numbers: robust z-score: higher = more LDL uptake after knockdown
- Active means: 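Active when two or more replicates show a robust z-score above 2 or below -2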

Target gene | PubChem SID | robust z-score, replicate 1 | robust z-score, replicate 2 | robust z-score, replicate 3
PRKG2 (protein kinase cGMP-dependent 2) | SID442888630 | 0.417 | 0.858 | 0.787
HENMT1 (HEN methyltransferase 1) | SID442892017 | 0.712 | 0.173 | -0.228
SYT5 (synaptotagmin 5) | SID442891959 | 0.207 | 0.122 | 0.346
RBM11 (RNA binding motif protein 11) | SID442893008 | 0.0299 | -0.0898 | 0.352
TAS2R60 (taste 2 receptor member 60) | SID442897136 | -0.185 | -0.381 | -0.487
EPCAM (epithelial cell adhesion molecule) | SID442888265 | 0.244 | 1.49 | 0.531
WNT2 (Wnt family member 2) | SID442884277 | -2.09 (active) | -1.12 | -2.08
GALM (galactose mutarotase) | SID442891911 | 0.245 | 0.195 | 0.252
ANAPC10 (anaphase promoting complex subunit 10) | SID442897141 | -0.423 | 0.61 | -1.24
ZSCAN20 (zinc finger and SCAN domain containing 20) | SID442886407 | 1.34 | 1.35 | 0.82
DNPH1 (2'-deoxynucleoside 5'-phosphate N-hydrolase 1) | SID442903652 | -0.838 | -1.39 | -1.82
ZDHHC22 (zDHHC palmitoyltransferase 22) | SID442885283 | 1.49 | 1.48 | 1.77
KRTAP13-1 (keratin associated protein 13-1) | SID442896236 | 0.105 | -0.538 | -0.321
PGLYRP2 (peptidoglycan recognition protein 2) | SID442894632 | 0.454 | -0.398 | -0.309
PPARA (peroxisome proliferator activated receptor alpha) | SID442885692 | 1.87 | 0.537 | 1.81
IMPACT (impact RWD domain protein) | SID442884088 | 2.06 (active) | 1.36 | 2.55
FOXR1 (forkhead box R1) | SID442890799 | 0.381 | 0.182 | 0.538
NDUFS6 (NADH:ubiquinone oxidoreductase subunit S6) | SID442894380 | 0.242 | -0.364 | -0.0513
PCDHB9 (protocadherin beta 9) | SID442904128 | -1.67 | -1.37 | -1.47
ZNF835 (zinc finger protein 835) | SID442904157 | -1.51 | -1.54 | -1.49
SMG1 | SID442889537 | 0.455 | 0.399 | 0.778
C14orf119 (chromosome 14 open reading frame 119) | SID442888285 | 0.532 | 2.39 | -0.669
ZBBX (zinc finger B-box domain containing) | SID442897151 | 0.0554 | -0.68 | -0.433
LOC440569 (retired record) | SID442886444 | 0.919 | 1.27 | 1.29
OAZ3 (ornithine decarboxylase antizyme 3) | SID442900763 | -0.624 | -1.21 | -0.577
LOC390760 (retired record) | SID442891205 | 0.329 | 0.309 | 0.313
CLIP3 (CAP-Gly domain containing linker protein 3) | SID442898345 | -0.624 | 0.113 | -0.954
FGF22 (fibroblast growth factor 22) | SID442904456 | -1.89 | -1.31 | -1.76
MYL12A (myosin light chain 12A) | SID442887219 | 0.723 | 1.23 | 0.921
MED16 (mediator complex subunit 16) | SID442901929 | -1.22 | -0.357 | -1.38
ASMT (acetylserotonin O-methyltransferase) | SID442885433 | 1.3 | 2.17 | 1.07
EEF1DP3 | SID442897611 | -0.196 | -0.691 | -0.327
OR8A1 (olfactory receptor family 8 subfamily A member 1) | SID442885336 | 1.75 | 1.16 | 1.76
LOC441555 (retired record) | SID442888251 | 2.05 | -0.222 | 0.44
LOC387706 (retired record) | SID442902085 | -1.02 | -0.997 | -1.01
LSG1 (large 60S subunit nuclear export GTPase 1) | SID442895758 | 1.13 | -1.58 | -0.153
ZFP69 (ZFP69 zinc finger protein) | SID442890513 | 0.305 | 0.28 | 0.637
AGO3 (argonaute RISC catalytic component 3) | SID442903154 | -0.946 | -1.18 | -1.56
NPM2 (nucleophosmin/nucleoplasmin 2) | SID442899762 | -0.618 | -0.697 | -0.681
SIGMAR1 (sigma receptor chaperone 1) | SID442893291 | -0.019 | 0.272 | -0.0518
NME9 (NME/NM23 family member 9) | SID442894817 | -0.0517 | -0.526 | 0.267
ANKFN1 (ankyrin repeat and fibronectin type III domain containing 1) | SID442900720 | -0.00297 | -1.39 | -1
LOC340171 (retired record) | SID442889194 | 0.636 | 0.445 | 0.712
SRRT (serrate, RNA effector molecule) | SID442902525 | -0.386 | -2.15 | -0.757
HELLS (helicase, lymphoid specific) | SID442892856 | 0.819 | -0.207 | -0.263
LOC441125 (retired record) | SID442889424 | 0.461 | 0.669 | 0.554
ANKRD29 (ankyrin repeat domain 29) | SID442895350 | 0.0348 | -0.541 | 0.0217
PPP2R5E (protein phosphatase 2 regulatory subunit B'epsilon) | SID442884590 | -2.89 (active) | -3.15 | -2.85
TCF3 (transcription factor 3) | SID442884871 | 1.51 | 1.36 | 2.6
GARIN1A (golgi associated RAB2 interactor 1A) | SID442894404 | 0.106 | -0.0891 | -0.197
OR51B4 (olfactory receptor family 51 subfamily B member 4) | SID442886170 | 1.89 | 0.632 | 1.21
LOC440172 (retired record) | SID442901625 | -0.694 | -0.945 | -1.15
PTOV1 (PTOV1 extended AT-hook containing adaptor protein) | SID442888726 | 0.877 | 0.435 | 0.704
SPTLC3 (serine palmitoyltransferase long chain base subunit 3) | SID442901525 | -2.13 | -0.0742 | -0.534
CDKL4 (cyclin dependent kinase like 4) | SID442896133 | 0.346 | -0.909 | -0.161
USP44 (ubiquitin specific peptidase 44) | SID442890344 | 0.273 | 0.755 | 0.265
IFNA6 (interferon alpha 6) | SID442883906 | 2.47 (active) | 1.65 | 2.39
AP3S1 (adaptor related protein complex 3 subunit sigma 1) | SID442887869 | 0.72 | 1.35 | 0.405
C9orf43 (chromosome 9 open reading frame 43) | SID442895460 | -0.306 | -0.219 | 0.0122
DRC4 (dynein regulatory complex subunit 4) | SID442883654 | 3.44 (active) | 1.95 | 2.12
VWC2L (von Willebrand factor C domain containing 2 like) | SID442896957 | -0.57 | 0.194 | -0.616
COA8 (cytochrome c oxidase assembly factor 8) | SID442900264 | -1.02 | -0.219 | -0.972
TST (thiosulfate sulfurtransferase) | SID442904106 | -1.92 | -1.49 | -1.07
LOC442683 (retired record) | SID442890312 | -0.00183 | 1.02 | 0.289
TTBK2 (tau tubulin kinase 2) | SID442904339 | -1.19 | -1.68 | -1.89
WHRN (whirlin) | SID442902054 | -1.4 | -1.31 | -0.298
CHCT1 (CHD1 helical C-terminal domain containing 1) | SID442889962 | 1.12 | 0.587 | -0.262
FAM193B (family with sequence similarity 193 member B) | SID442891105 | 0.71 | 0.118 | 0.163
